Molecules are shown by their SMILES. Structures can show the parent of a compound that is named as a salt. The list shows a part of the results. This data set is noisy: repeats of one test often differ as much as different tests do.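 Human embryonic kidney cells were transiently transfected with a plasmid bearing a Renilla luciferase gene under the HSV-TK promoter. This first-round screen tests roughly ten thousand compounds for ones that increase reporter output.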

The test system of this assay is HEK 293FT. Briefly: log relative Renilla luciferase luminescence (reporter expression vs reference, reference not stated) (log (base not stated)); higher = higher recombinant reporter expression. Conditions: 10 µM; time after transfection 48 h.
As for `C[C@@H]1C[C@H]2[C@@H]3C[C@H](F)C4=CC(=O)C=C[C@]4(C)[C@@]3(F)[C@@H](O)C[C@]2(C)[C@@]1(O)C(=O)CO` [flumethasone], the log is -0.0194.

Regarding `O=C(O)Cc1ccc(-c2ccccc2)cc1` [felbinac], the log is -0.123.

With `O=C(O)c1cn(-c2ccc(F)cc2)c2cc(N3CCNCC3)c(F)cc2c1=O` [sarafloxacin hydrochloride], the log came out at 0.0525.

As to `CC[C@H](/C=C/[C@@H](C)[C@H]1CC[C@H]2[C@@H]3CC=C4C[C@@H](O)CC[C@]4(C)[C@H]3CC[C@]12C)C(C)C` [stigmasterol], the log is 0.0509.

`C[N+]1(C)CCC(OC(=O)C(O)(c2ccccc2)C2CCCC2)C1` (stereo unspecified) [glycopyrrolate]: the log was -0.151.

For the compound `CCCCCCCCCCCCCCCCCCOCC(O)CO` (stereo unspecified) [batyl alcohol], the log worked out at 0.0573.

In the case of `Clc1ccc(CCC(Cn2ccnc2)Sc2c(Cl)cccc2Cl)cc1` (stereo unspecified) [butoconazole], the log is -0.0794.

For `CCCCCc1c2c(cc(O)c1C(=O)O)OC(=O)c1c(cc(OC)cc1C(=O)CCCC)O2` [lobaric acid], the log was -0.156.

As to `N#Cc1ccc(C(c2ccc(C#N)cc2)n2cncn2)cc1` [letrozole], the log was determined as 0.106.

Turning to `COC1=C[C@@H](C)[C@@H]2C[C@H]3OC(=O)C[C@H]4C(C)=C(OC)C(=O)[C@H]([C@@]2(C)C1=O)[C@@]34C` [quassin], the log came to 0.0319.

As for `COc1c2occc2cc2ccc(=O)oc12` [methoxsalen], the log is 0.0375.

As for `N=C(NCCCCCCNC(=N)NC(=N)Nc1ccc(Cl)cc1)NC(=N)Nc1ccc(Cl)cc1` [chlorhexidine dihydrochloride], the log was -0.157.

Turning to `NCc1ccccc1CC(=O)N[C@@H]1C(=O)N2C(C(=O)O)=C(CSc3nnnn3CC(=O)O)CS[C@H]12` [ceforanide], the log is -0.0398.

As for `CN1CCN(C2=Nc3ccccc3Oc3ccc(Cl)cc32)CC1` [loxapine succinate], the log amounted to 0.0576.

With `CC(C)CC(N)=O` [isovaleramide], the log stood at 0.0502.

`COC(=O)c1cc(O)c(=O)c2c(O)c(O)ccc2c1` [methyl 7-deshydroxypyrogallin-4-carboxylate]: the log turned out to be 0.307.

For the compound `Oc1ccc2ccccc2c1` [beta-naphthol], the log is -1.54.

As for `CC(=O)S[C@@H]1CC2=CC(=O)CC[C@]2(C)[C@H]2CC[C@@]3(C)[C@@H](CC[C@@]34CCC(=O)O4)[C@H]12` [spironolactone], the log came to 0.128.

As to `CCCc1cc(C(N)=S)ccn1` [protionamide], the log came to 0.00793.

In the case of `CC(Cc1cccc(C(F)(F)F)c1)NCCOC(=O)c1ccccc1` (stereo unspecified) [benfluorex hydrochloride], the log stood at 0.0284.

`C=C1CC[C@H](O)C/C1=C/C=C1\CCC[C@]2(C)[C@@H]([C@H](C)CCCC(C)C)CC[C@@H]12` [cholecalciferol]: the log is 0.109.

For `NNCCc1ccccc1` [phenelzine sulfate], the log was 0.0602.

For the compound `Cc1nccnc1N1CCCCC1` [modaline sulfate], the log turned out to be 0.0705.

Consider `C[C@H]1O[C@H](O[C@H]2[C@H](O)[C@@H](O)[C@@H](O[C@H]3[C@H](O)[C@@H](O)C(O)O[C@@H]3CO)O[C@@H]2CO)[C@H](O)[C@@H](O)[C@@H]1N[C@H]1C=C(CO)[C@@H](O)[C@H](O)[C@H]1O` (stereo partly specified) [acarbose], for which the log was 0.0233.

As to `CC(C)(CO)[C@@H](O)C(=O)NCCC(=O)NCCSSCCNC(=O)CCNC(=O)[C@H](O)C(C)(C)CO` [pantethine], the log was 0.004.

Consider `CN1CCN(CC/C=C2/c3ccccc3Sc3ccc(S(=O)(=O)N(C)C)cc32)CC1` [thiothixene], for which the log amounted to 0.0741.

For the compound `COc1ccc2c(=O)c(OC)c(-c3ccccc3)oc2c1` [3,7-dimethoxyflavone], the log was -0.0168.

As for `CN1CCC(=C2c3ccccc3C=Cc3ccccc32)CC1` [cyproheptadine hydrochloride], the log is -0.0451.

In the case of `COc1ccc(-c2cc(=O)c3ccccc3o2)cc1` [4'-methoxyflavone], the log came out at 0.0121.

For `N=C(N)NC(=N)NCCc1ccccc1` [phenformin hydrochloride], the log came out at 0.214.

Consider `NCCc1c[nH]cn1` [histamine dihydrochloride], for which the log was determined as 0.0715.

Turning to `CCCOc1cc(N)ccc1C(=O)OCCN(CC)CC` [propoxycaine hydrochloride], the log was -0.176.

On to `OC(Cn1cncn1)(Cn1cncn1)c1ccc(F)cc1F` [fluconazole], for which the log was 0.128.

On to `Nc1[nH]cnc2ncnc1-2` [adenine], for which the log is -0.0423.

As to `O.O.O=C([O-])CN(CCN(CC(=O)[O-])CC(=O)O)CC(=O)O.[Na+].[Na+]` [edetate disodium], the log came to 0.0553.

Take `CC(=O)[C@@]1(O)CC[C@H]2[C@@H]3C=C(Cl)C4=CC(=O)[C@@H]5C[C@@H]5[C@]4(C)[C@H]3CC[C@@]21C` [cyproterone]: the log is -0.086.

With `CC[N+](C)(C)c1cccc(O)c1` [edrophonium chloride], the log amounted to 0.0345.

In the case of `COc1c(-c2coc3cc4c(cc3c2=O)CC(O)C(C)(C)O4)ccc2c1C=CC(C)(C)O2` (stereo unspecified) [mundulone], the log is -0.581.

`Cc1cn[nH]c1` [fomepizole]: the log worked out at 0.153.

As for `Cc1cn[nH]c1` [fomepizole hydrochloride], the log worked out at 0.185.

As for `CC(=O)OCC(=O)[C@@]1(O)CC[C@H]2[C@@H]3CCC4=CC(=O)C=C[C@]4(C)[C@@]3(Cl)[C@@H](Cl)C[C@@]21C` [dichlorisone acetate], the log was -0.0182.

Turning to `O=C(O)CN1C(=O)c2cccc3cccc(c23)C1=O` [alrestatin], the log was -0.154.

For the compound `FC(F)(F)C(Cl)Br` (stereo unspecified) [halothane], the log was -0.0802.

As to `CCCCN(CCCC)CCCOC(=O)c1ccc(N)cc1` [butacaine], the log amounted to 0.172.

As to `Cc1ccc(C(=O)c2ccc(CC(=O)O)n2C)cc1` [tolmetin sodium], the log was -0.0519.

On to `CC(=O)OCC(=O)[C@@]1(O)CC[C@H]2[C@@H]3CCC4=CC(=O)CC[C@]4(C)[C@@]3(F)[C@@H](O)C[C@@]21C` [fludrocortisone acetate], for which the log is -0.0916.

`O=C(O)CCCCCCCC(=O)O` [azelaic acid]: the log is -0.193.

`CC(=O)O[C@@H]1C[C@H]2C(C)(C)C(=O)CC[C@]2(C)[C@H]2CC[C@@]3(C)[C@H](c4ccoc4)OC(=O)[C@H]4O[C@]43[C@@]21C` [dihydrogedunin]: the log stood at 0.216.

In the case of `CC12CCC3C(CC3(C)C)C(C)(CCC1=O)O2` (stereo unspecified) [3,7-epoxycaryophyllan-6-one], the log turned out to be 0.0684.

On to `NS(=O)(=O)c1cc(C2(O)NC(=O)c3ccccc32)ccc1Cl` (stereo unspecified) [chlorthalidone], for which the log is -0.09.

For `CCCCCCCCCCCCCCCC(=O)OC/C=C(C)/C=C/C=C(C)/C=C/C1=C(C)CCCC1(C)C` [retinyl palmitate], the log was 0.214.

Take `C=CC(N)CCC(=O)O` (stereo unspecified) [vigabatrin]: the log came out at 0.0621.

As for `Cc1ncc(C[n+]2csc(CCO)c2C)c(N)n1` [thiamine], the log turned out to be 0.00912.

As to `CC(C)c1c(C(=O)Nc2ccccc2)c(-c2ccccc2)c(-c2ccc(F)cc2)n1CC[C@@H](O)C[C@@H](O)CC(=O)O` [atorvastatin calcium], the log came to 0.0217.

Turning to `CC(=O)OCC(=O)[C@@]1(O)CC[C@H]2[C@@H]3CCC4=CC(=O)CC[C@]4(C)[C@H]3[C@@H](O)C[C@@]21C` [hydrocortisone acetate], the log worked out at 0.159.

`CCN[C@H]1CN(CCCOC)S(=O)(=O)c2sc(S(N)(=O)=O)cc21` [brinzolamide]: the log is -0.128.

For the compound `OC[C@@H](O)[C@@H](O)[C@H](O)[C@H](O)CO` [mannitol], the log was -0.176.

As to `C=CCc1ccc(O)c(OC)c1` [eugenol], the log is 0.157.

Consider `CC(=O)OCC(=O)NCCCOc1cccc(CN2CCCCC2)c1` [roxatidine acetate hydrochloride], for which the log worked out at 0.218.

Regarding `CCn1cc(C(=O)O)c(=O)c2cc(F)c(N3CCNCC3)nc21` [enoxacin], the log stood at 0.129.

Consider `COc1cc(O)c(C(=O)/C=C/c2ccc(OC)c(O)c2)c(OC)c1` [2',3-dihydroxy-4,4',6'-trimethoxychalcone], for which the log is 0.182.

For the compound `CN(C)c1cnccn1` [ampyzine sulfate], the log is -0.0911.

On to `CC(CCC(=O)O)[C@H]1CCC2C3C[C@H](O)[C@@H]4C[C@H](O)CC[C@]4(C)C3CC[C@@]21C` (stereo partly drawn) [alpha-hydroxydeoxycholic acid], for which the log came out at 0.161.

Take `CCCc1ncc(C[n+]2ccccc2C)c(N)n1` [amprolium]: the log amounted to 0.0154.

For `C=CC(C)(O)CCC=C(C)CCC=C(C)C` (mixture of isomers) [nerolidol], the log is 0.0938.

For the compound `COc1ccccc1-c1coc2cc(O)ccc2c1=O` [7-hydroxy-2'-methoxyisoflavone], the log worked out at 0.0464.

Regarding `CC(C(=O)O)c1cccc(Oc2ccccc2)c1` (stereo unspecified) [fenoprofen], the log was -0.0656.

In the case of `O=C(O)CN(CCN(CC(=O)O)CC(=O)O)CC(=O)O.[Na+].[Na+].[Na+]` [trisodium ethylenediamine tetracetate], the log is -0.175.

Turning to `O=C1OC(c2ccc(O)cc2)(c2ccc(O)cc2)c2ccccc21` [phenolphthalein], the log was found to be 0.0225.

Turning to `COc1cc(OC)c2c(=O)cc(-c3ccccc3)oc2c1` [chrysin dimethyl ether], the log was found to be 0.0209.

Take `COc1ccc2c(C)cc(=O)oc2c1` [hymecromone methyl ether]: the log came to 0.0285.

Regarding `COC(=O)C[C@H]1C(C)(C)[C@@H](O)[C@@H]2CC3=C4C=C(OC)O[C@@H](c5ccoc5)[C@]4(C)CCC3[C@@]1(C)C2=O` (stereo partly drawn) [3-deoxo-3beta-hydroxymexicanolide 16-enol ether], the log is 0.0826.

`Cc1cccc(C)c1NC(=O)c1ccccc1C(=O)O` [ftaxilide]: the log is -0.00108.

On to `CC(C)NCC(O)COc1cccc2ccccc12` (racemic) [propranolol hydrochloride (+/-)], for which the log is -0.0459.

In the case of `CS(=O)(=O)c1ccc([C@@H](O)[C@@H](CF)NC(=O)C(Cl)Cl)cc1` [florfenicol], the log was -0.0505.

As to `CCN(CC)CCCC(C)Nc1ccnc2cc(Cl)ccc12` (stereo unspecified) [chloroquine diphosphate], the log is -0.0201.

Values taken from the supplement of paper PMC7024190.
